No constants are given. Whether binding was seen depends on the method and setting. Some binding calls cover weakened binding; strength is not graded here.

The results in this text go back to article PMC5669925, “Tumor-expressed immune checkpoint B7x promotes cancer progression and antigen-specific CD8 T cell exhaustion and suppressive innate immune cells” (Oncotarget, 2017).

For assay [1], the target named is T1, Human B7x-hIgG1 (Sino Biological) (human) (UniProt Q7Z7D3).
T1 sequence: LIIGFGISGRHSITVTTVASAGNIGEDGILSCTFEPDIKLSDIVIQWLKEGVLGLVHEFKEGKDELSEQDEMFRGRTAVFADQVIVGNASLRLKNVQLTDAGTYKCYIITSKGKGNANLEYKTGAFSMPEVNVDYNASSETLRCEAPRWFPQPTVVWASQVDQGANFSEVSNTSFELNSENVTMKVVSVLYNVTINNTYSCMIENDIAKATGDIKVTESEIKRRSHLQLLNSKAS
The assay is described as follows: BLI; BLItz system (ForteBio); human IgG fusion protein (25 ug/mL, 2 min) captured on anti-human IgG Fc capture sensors; protein analytes in 1x Kinetic Buffer (ForteBio); both purified. On the technique in general: In BLI a coated tip is dipped into the sample, and binding shifts an interference pattern.

For assay [2], the target named is Full length human Neuropilin-1 on 3T3 cells (human) (UniProt O14786). In words: flow cytometry on cells; 3T3 cells expressing full length human Neuropilin-1 (1 x 10^5) incubated with Ig fusion proteins (1 or 10 ug/mL) for 45 minutes on ice in FACS buffer; detected with anti-human IgG Fc antibody; only the binder purified. (In general: A flow cytometer gives signals particle by particle.)

Assay [3] concerns the target T2, Human NRP1-hIgG1 (Sino Biological) (human) (UniProt O14786).
T2 sequence: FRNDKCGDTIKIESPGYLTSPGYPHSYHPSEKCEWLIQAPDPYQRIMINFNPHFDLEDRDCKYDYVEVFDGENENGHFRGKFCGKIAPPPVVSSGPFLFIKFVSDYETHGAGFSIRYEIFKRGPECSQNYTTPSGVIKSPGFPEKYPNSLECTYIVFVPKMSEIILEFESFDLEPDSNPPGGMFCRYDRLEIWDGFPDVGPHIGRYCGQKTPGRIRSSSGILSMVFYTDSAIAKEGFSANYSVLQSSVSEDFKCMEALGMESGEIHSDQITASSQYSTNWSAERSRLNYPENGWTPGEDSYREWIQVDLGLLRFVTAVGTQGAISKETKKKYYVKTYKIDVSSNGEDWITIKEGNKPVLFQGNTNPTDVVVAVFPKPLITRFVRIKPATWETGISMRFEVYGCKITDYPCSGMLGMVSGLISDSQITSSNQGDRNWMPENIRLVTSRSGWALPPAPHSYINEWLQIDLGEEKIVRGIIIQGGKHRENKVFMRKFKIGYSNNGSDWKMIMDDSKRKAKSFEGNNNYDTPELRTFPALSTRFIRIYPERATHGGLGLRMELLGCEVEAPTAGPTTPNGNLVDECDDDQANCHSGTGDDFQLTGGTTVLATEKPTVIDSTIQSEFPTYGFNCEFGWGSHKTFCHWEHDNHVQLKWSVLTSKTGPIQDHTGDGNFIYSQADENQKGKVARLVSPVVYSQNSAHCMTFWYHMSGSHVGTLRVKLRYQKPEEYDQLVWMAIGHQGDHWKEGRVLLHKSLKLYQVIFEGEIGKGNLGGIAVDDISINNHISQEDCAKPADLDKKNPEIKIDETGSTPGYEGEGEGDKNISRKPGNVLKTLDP
In words: BLI; BLItz system (ForteBio); human IgG fusion protein (25 ug/mL, 2 min) captured on anti-human IgG Fc capture sensors; protein analytes in 1x Kinetic Buffer (ForteBio); both purified.

Assay [4] deals with T3, Human Sema3a-hIgG1 (R&D) (human), Q14563.
T3 chain: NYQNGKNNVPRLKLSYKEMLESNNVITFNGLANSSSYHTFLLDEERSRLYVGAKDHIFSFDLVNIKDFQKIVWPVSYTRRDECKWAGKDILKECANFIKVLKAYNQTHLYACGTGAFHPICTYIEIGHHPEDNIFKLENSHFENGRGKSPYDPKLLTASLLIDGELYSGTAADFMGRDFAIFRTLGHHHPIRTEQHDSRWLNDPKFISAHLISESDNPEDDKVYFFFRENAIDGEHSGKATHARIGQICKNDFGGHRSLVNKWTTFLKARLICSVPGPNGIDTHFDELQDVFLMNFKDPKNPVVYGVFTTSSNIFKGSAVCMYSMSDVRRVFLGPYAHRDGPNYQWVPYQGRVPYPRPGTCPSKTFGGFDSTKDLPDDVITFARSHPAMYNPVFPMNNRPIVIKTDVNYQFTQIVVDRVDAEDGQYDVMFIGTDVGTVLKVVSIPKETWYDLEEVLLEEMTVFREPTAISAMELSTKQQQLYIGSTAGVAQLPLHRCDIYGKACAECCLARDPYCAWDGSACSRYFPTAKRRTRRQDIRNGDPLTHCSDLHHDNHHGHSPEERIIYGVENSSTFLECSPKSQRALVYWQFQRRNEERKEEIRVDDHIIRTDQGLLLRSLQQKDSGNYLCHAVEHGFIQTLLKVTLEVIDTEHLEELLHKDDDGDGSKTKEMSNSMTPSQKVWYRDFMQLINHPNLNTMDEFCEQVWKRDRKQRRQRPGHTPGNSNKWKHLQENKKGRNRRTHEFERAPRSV
The description is as above. The settings on record: remark: other sources report otherwise.

In the case of “Recombinant human NRP1 (R&D) (from UniProt O14786 22-856) (receptor)”, the binding result in assay [1] is “no binding (tested: 0.5 mg/mL)”.

B1: Human Sema3a-hIgG1 (R&D) (Fc fusion, UniProt Q14563 21-771, looked up)
chain: NYQNGKNNVPRLKLSYKEMLESNNVITFNGLANSSSYHTFLLDEERSRLYVGAKDHIFSFDLVNIKDFQKIVWPVSYTRRDECKWAGKDILKECANFIKVLKAYNQTHLYACGTGAFHPICTYIEIGHHPEDNIFKLENSHFENGRGKSPYDPKLLTASLLIDGELYSGTAADFMGRDFAIFRTLGHHHPIRTEQHDSRWLNDPKFISAHLISESDNPEDDKVYFFFRENAIDGEHSGKATHARIGQICKNDFGGHRSLVNKWTTFLKARLICSVPGPNGIDTHFDELQDVFLMNFKDPKNPVVYGVFTTSSNIFKGSAVCMYSMSDVRRVFLGPYAHRDGPNYQWVPYQGRVPYPRPGTCPSKTFGGFDSTKDLPDDVITFARSHPAMYNPVFPMNNRPIVIKTDVNYQFTQIVVDRVDAEDGQYDVMFIGTDVGTVLKVVSIPKETWYDLEEVLLEEMTVFREPTAISAMELSTKQQQLYIGSTAGVAQLPLHRCDIYGKACAECCLARDPYCAWDGSACSRYFPTAKRRTRRQDIRNGDPLTHCSDLHHDNHHGHSPEERIIYGVENSSTFLECSPKSQRALVYWQFQRRNEERKEEIRVDDHIIRTDQGLLLRSLQQKDSGNYLCHAVEHGFIQTLLKVTLEVIDTEHLEELLHKDDDGDGSKTKEMSNSMTPSQKVWYRDFMQLINHPNLNTMDEFCEQVWKRDRKQRRQRPGHTPGNSNKWKHLQENKKGRNRRTHEFERAPRSV
notes: Semaphorin 3a (Sema3a), human; Commercial Fc fusion; no catalogue number; also called Sema3a-Ig; Semaphorin3a-hIgG1; source: bought: R&D systems
B1: in assay [2], the binding entry is on record as “binds”.

B2: Recombinant human B7x (R&D) (ligand, UniProt Q7Z7D3 25-259)
chain: LIIGFGISGRHSITVTTVASAGNIGEDGILSCTFEPDIKLSDIVIQWLKEGVLGLVHEFKEGKDELSEQDEMFRGRTAVFADQVIVGNASLRLKNVQLTDAGTYKCYIITSKGKGNANLEYKTGAFSMPEVNVDYNASSETLRCEAPRWFPQPTVVWASQVDQGANFSEVSNTSFELNSENVTMKVVSVLYNVTINNTYSCMIENDIAKATGDIKVTESEIKRRSHLQLLNSKAS
As to B2, in assay [3], the binding result is “no binding (tested: 0.5 mg/mL)”.

B3: Recombinant human B7x (R&D), Q7Z7D3 25-259 (ligand)
chain: LIIGFGISGRHSITVTTVASAGNIGEDGILSCTFEPDIKLSDIVIQWLKEGVLGLVHEFKEGKDELSEQDEMFRGRTAVFADQVIVGNASLRLKNVQLTDAGTYKCYIITSKGKGNANLEYKTGAFSMPEVNVDYNASSETLRCEAPRWFPQPTVVWASQVDQGANFSEVSNTSFELNSENVTMKVVSVLYNVTINNTYSCMIENDIAKATGDIKVTESEIKRRSHLQLLNSKAS
With B3, the binding entry in assay [4] is reported as “no binding (tested: 0.5 mg/mL)”.
